Measured data: PubChem BioAssay AID1159578 (Peter MacCallum Cancer Centre, 2015)
Test: 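siRNA pools altering how lymphatic endothelial cells close a scratch wound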 (primary screen). Cell system: human lymphatic endothelial cells. Reagents: siRNA pool against human genes, 40 nM. Time to read-out: 48 h after transfection. Measured: 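High-content imaging of dye-stained cells in a scratch assay measures filled wound area and nuclei per well; duplicate means given as ratio to mock and robust z-score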. Scale: migration robust z-score: higher = faster migration into the scratch; nuclei per well: higher = more cells in the well. Rule for the call: 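Pools averaging fewer than 3300 nuclei are never called; remaining pools count as changed when migration robust z lies outside -2 to 2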. Calls: active = migration changed; inactive = no migration change, or too few cells.
The whole screen tested about 18,000 reagents; below is an unselected part. About 1,030 of them (5.7%) count as active. 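Inactive calls also include pools with fewer than 3300 nuclei, whose migration was not assessed.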 Raw values vary from plate to plate and are shown uncorrected. Entries without a mark were called inactive. Further read-outs or replicates are left out here.

Depletion of GPRIN1 gave: migration robust z-score -0.74; nuclei per well, duplicate mean 5517.
Knock-down of FDX1 resulted in: migration robust z-score 0.55; nuclei per well, duplicate mean 6272.
After knock-down of MZT2A, the screen gave migration robust z-score -0.05; nuclei per well, duplicate mean 6700.
With knock-down of AKR1B15 the results were migration robust z-score 0.48; nuclei per well, duplicate mean 6224.
Knock-down of FRS2 gave: migration robust z-score -1.1; nuclei per well, duplicate mean 5098.
For MARF1, the values are migration robust z-score -0.15; nuclei per well, duplicate mean 4966.
WIPF3 gave migration robust z-score -1.71; nuclei per well, duplicate mean 4496.
GLIPR2 scored migration robust z-score -0.06; nuclei per well, duplicate mean 6106.
With knock-down of KHK, the screen gave migration robust z-score -0.88; nuclei per well, duplicate mean 4596.
MASP2 showed migration robust z-score 0.08; nuclei per well, duplicate mean 5444.
After knock-down of FZD2 the results were migration robust z-score -0.1; nuclei per well, duplicate mean 5202.
With knock-down of R3HDM1, the record shows migration robust z-score 1.16; nuclei per well, duplicate mean 4638.
POLH scored migration robust z-score -3.55 (active); nuclei per well, duplicate mean 4000.

Limited to “nuclei per well, duplicate mean”, for 3 of the entries above:
MARF1 = 4966
WIPF3 = 4496
GLIPR2 = 6106

Further records follow.
With knock-down of C1orf74, the record shows migration robust z-score 0.08; nuclei per well, duplicate mean 5819.
After knock-down of IDI2, the screen gave migration robust z-score -0.08; nuclei per well, duplicate mean 5794.
Depletion of GBA2 came out at: migration robust z-score 0.47; nuclei per well, duplicate mean 5560.
After knock-down of BPY2C, the record shows migration robust z-score -0.88; nuclei per well, duplicate mean 5350.
BRAF gave migration robust z-score -3.4; nuclei per well, duplicate mean 3183.
SCRN3 gave migration robust z-score 0.14; nuclei per well, duplicate mean 6310.
After knock-down of LARP1B, the screen gave migration robust z-score -0.74; nuclei per well, duplicate mean 6278.
Depletion of BTF3 resulted in: migration robust z-score -2.54 (active); nuclei per well, duplicate mean 3952.
